We go through one compound from PMC6899342 (PeerJ, 2019).

By UniProt entry, the sequences of proteins in these tests, tags left out.
UniProt O56129, whole entry: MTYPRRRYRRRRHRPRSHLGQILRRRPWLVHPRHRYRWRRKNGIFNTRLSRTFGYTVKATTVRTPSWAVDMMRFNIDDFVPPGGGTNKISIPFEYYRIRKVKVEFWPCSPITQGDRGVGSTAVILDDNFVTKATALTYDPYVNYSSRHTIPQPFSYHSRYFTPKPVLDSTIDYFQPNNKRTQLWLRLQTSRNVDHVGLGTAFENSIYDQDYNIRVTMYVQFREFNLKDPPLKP

SMILES strings stand for the structures.

The target of the test is T1, PCV2 Cap protein (Porcine circovirus 2, UniProt O56129).
T1 construct: made in house; host or cells: E. coli BL21 (pET28a-Cap)
Kind of test: biochemical. Format: binding, porcine circovirus type II. The method, then: The equilibrium binding constant (KD) of peptides was determined using an Open SPR instrument (Nicoya, Canada). First, purified Cap protein was covalently immobilized on a carboxyl Au colloidal nanoparticles chip. […] Then, all peptides were respectively dissolved in PBS at predetermined concentrations and injected to detect the resonance signal changes. In each cycle, 300 µL of peptide solution was injected into the flow cell of the Cap chip for 5 min. Finally, the data were assessed to determine the association constant (ka, 1/Ms), the dissociation constant (kd, 1/s), the equilibrium binding constant (KD, M), and KD = kd/ka via Trace Drawer 1.7 (Nicoya, Canada).
All the steps were performed according to manufacturer’s instructions. First, the activation of carboxyl chip: the chip is activated by the EDC/NHS reagent in the amine coupling kit. […] The last step is to block the chip with blocking buffer. In every step, The 300 μL sample was flowed through the chip for 5 min at a constant flow rate of 20 μL/min.
Dissociation constant Kd represents the ratio of AB (ie, AB) dissociated in unit time to the initial AB before dissociation, which represents the speed of the dissociation reaction.Equilibrium dissociation constant KD =kd/ka, KD unit is M (mol/L)
1:1 binding interaction model represents the binding mode of ligand and target according to 1:1. […]

Regarding `NC(=O)CC[C@H](NC(=O)[C@H](Cc1c[nH]c2ccccc12)NC(=O)[C@H](Cc1c[nH]c2ccccc12)NC(=O)[C@H](Cc1ccc(O)cc1)NC(=O)[C@@H](N)CC(=O)O)C(=O)N[C@@H](CO)C(=O)N[C@@H](Cc1c[nH]c2ccccc12)C(=O)N[C@@H](CCC(=O)O)C(=O)O` [Peptide L11], binding was characterised by a dissociation constant (Kd) of 103 nM.
